Results from article PMC11798907.
For at least one entry, the source does not settle the construct or the ends of the probe. For part of these data: A negative result means that nothing was seen under these conditions. For part of these data: At least one verdict rests on a figure or table, not on a statement of the authors.

Sequences of proteins named here, by UniProt entry; tags and fusion partners are left off. A change or cut given only in a name is not applied to a line headed by its entry.
UniProt Q75KW2, entry or part of it: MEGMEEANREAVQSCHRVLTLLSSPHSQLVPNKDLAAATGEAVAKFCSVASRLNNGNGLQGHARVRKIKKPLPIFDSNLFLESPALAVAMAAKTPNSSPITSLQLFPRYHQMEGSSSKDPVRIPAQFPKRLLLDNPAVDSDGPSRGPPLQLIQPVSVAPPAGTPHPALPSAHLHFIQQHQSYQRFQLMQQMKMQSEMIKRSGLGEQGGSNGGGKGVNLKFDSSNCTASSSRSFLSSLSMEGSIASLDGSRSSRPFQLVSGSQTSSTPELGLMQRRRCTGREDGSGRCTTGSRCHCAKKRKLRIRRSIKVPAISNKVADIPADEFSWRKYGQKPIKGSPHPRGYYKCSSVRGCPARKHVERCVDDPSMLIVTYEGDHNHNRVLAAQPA
UniProt Q6QHD1: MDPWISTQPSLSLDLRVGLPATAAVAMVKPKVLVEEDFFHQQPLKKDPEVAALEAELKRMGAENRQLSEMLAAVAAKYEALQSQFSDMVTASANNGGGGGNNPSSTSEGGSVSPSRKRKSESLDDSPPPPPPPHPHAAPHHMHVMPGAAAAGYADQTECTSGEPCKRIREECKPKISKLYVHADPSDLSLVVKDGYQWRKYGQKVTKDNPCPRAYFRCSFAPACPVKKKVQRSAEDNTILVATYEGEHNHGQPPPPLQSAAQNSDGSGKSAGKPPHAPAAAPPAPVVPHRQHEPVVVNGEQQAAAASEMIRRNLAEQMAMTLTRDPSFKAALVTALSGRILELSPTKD

How the values were obtained:
[1] = target: OsWRKY121 (Oryza sativa) (UniProt Q75KW2); assay: EMSA; settings: LightShift Chemiluminescent EMSA kit protocol; 20 fmol biotin-labeled DNA, 4 pmol protein (where stated); pH and temperature not stated; recombinant protein; protein details: His-MBP (pDEST-HisMBP); label: 3'-biotin; probe letters rebuilt from the primers and the genome
[2] = target: OsWRKY71 (Oryza sativa) (UniProt Q6QHD1); assay: EMSA; settings: LightShift Chemiluminescent EMSA kit protocol; 20 fmol biotin-labeled DNA, 4 pmol protein (where stated); pH and temperature not stated; recombinant protein; protein details: His-MBP (pDEST-HisMBP); label: 3'-biotin; probe letters rebuilt from the primers and the genome

Row | Sequence | binding result [1] | binding result [2]
1 | ACCAGAGTTCTTTTTCCCCCTCTTCTACATAAACGAAAACAGCTTGTTGACTGGCTCCCTAGAGCTTTTTGTAAGTTGATCATCGAAGTAGCT (double strand) [OsNF-YC4 promoter P1] | no binding | binds
2 | AGCATTATGATGGCTAAGGATTGTCCTTTCGTTCAGGAAAAGTACAAAATCAAGGAAAATGCAGA (double strand) [OsNF-YC4 promoter P4] | no binding | –
